Reference: paper PMC6965034
These are yes or no findings as the source states them, for the method shown. Some entries that bind do so weakly or less than the wild type. Blank lines part the entries; values can stand above or below the binder they belong to.

Chains of the proteins cited; added tags and fusions are not shown. Lines headed by an entry give the natural chain unless they say otherwise; changes in a name come on top. Residues count along the entry.
cytoplasmic domain of human sortilin (K779-E831) in fusion with LexA (Q99523, residues 779-831): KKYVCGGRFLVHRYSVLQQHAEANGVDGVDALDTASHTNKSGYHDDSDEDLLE

Assays:
[1] = molecular target: cytoplasmic domain of human sortilin (K779-E831) in fusion with LexA (human) (UniProt Q99523); test: two-hybrid; one-by-one tests of bait (pB27) and prey plasmids, spot plated on -Leu/-Trp/-His plates with 3-AT; plasmids without inserts as negative controls
[2] = molecular target: sortilin-cd S15A (Ser793 to Ala), yeast two-hybrid bait (human) (UniProt Q99523); test: as above

binding [1]: binds | binding [2]: binds
B1: AP-1 adaptor complex subunit μ1B (protein, UniProt Q9Y6Q5-1 1-423)
chain: MSASAVFILDVKGKPLISRNYKGDVAMSKIEHFMPLLVQREEEGALAPLLSHGQVHFLWIKHSNLYLVATTSKNANASLVYSFLYKTIEVFCEYFKELEEESIRDNFVIVYELLDELMDFGFPQTTDSKILQEYITQQSNKLETGKSRVPPTVTNAVSWRSEGIKYKKNEVFIDVIESVNLLVNANGSVLLSEIVGTIKLKVFLSGMPELRLGLNDRVLFELTGRSKNKSVELEDVKFHQCVRLSRFDNDRTISFIPPDGDFELMSYRLSTQVKPLIWIESVIEKFSHSRVEIMVKAKGQFKKQSVANGVEISVPVPSDADSPRFKTSVGSAKYVPERNVVIWSIKSFPGGKEYLMRAHFGLPSVEKEEVEGRPPIGVKFEIPYFTVSGIQVRYMKIIEKSGYQALPWVRYITQSGDYQLRTS

binding [1]: binds | binding [2]: binds
B2: AP-1 adaptor complex subunit μ1A (protein, UniProt Q9BXS5-1 1-423)
chain: MSASAVYVLDLKGKVLICRNYRGDVDMSEVEHFMPILMEKEEEGMLSPILAHGGVRFMWIKHNNLYLVATSKKNACVSLVFSFLYKVVQVFSEYFKELEEESIRDNFVIIYELLDELMDFGYPQTTDSKILQEYITQEGHKLETGAPRPPATVTNAVSWRSEGIKYRKNEVFLDVIESVNLLVSANGNVLRSEIVGSIKMRVFLSGMPELRLGLNDKVLFDNTGRGKSKSVELEDVKFHQCVRLSRFENDRTISFIPPDGEFELMSYRLNTHVKPLIWIESVIEKHSHSRIEYMIKAKSQFKRRSTANNVEIHIPVPNDADSPKFKTTVGSVKWVPENSEIVWSIKSFPGGKEYLMRAHFGLPSVEAEDKEGKPPISVKFEIPYFTTSGIQVRYLKIIEKSGYQALPWVRYITQNGDYQLRTQ
